Experimental data as given in patent US9931401B2, “Combination comprising anti-fibroblast growth factor receptor 2 (FGFR2) antibody and a tyrosine kinase inhibitor” (Daiichi Sankyo Company, Limited, priority 2013, dated 2018).

B1: FR2-13: anti-human FGFR2 rat monoclonal antibody obtained by the method described in Example 1; VH SEQ ID NO: 14, VL SEQ ID NO: 24 (antibody, listed as Rattus norvegicus, V domains shown)
VH: QVKLLQSGAELVKPGASVKLSCKTSGFTFSTSYMSWLKQVPGPSIEWIGWIYAGDGGTKYNQKFKGKATLTVDKSSSTAYMDLSSLTSEDAAVYFCATDGYGDWFAYWGQGTLVTVSS
VL: DIQMTQSPASLSASLGETVTIECRASEDIYSNLAWYQQKPGNSPQLLIYDANILADGVPSRFSGSGSGTQYSLKINSLQSEDVASYFCQQYNNYPPFTFGVGTKLELKRA
B2: FR2-14: anti-human FGFR2 rat monoclonal antibody obtained by the method described in Example 1; VH SEQ ID NO: 16, VL SEQ ID NO: 26 (antibody, listed as Rattus norvegicus, V domains shown)
VH: B1 VH with I45T, S75F, A106T
VL: B1 VL with V101A
B3: FR2-10: anti-human FGFR2 rat monoclonal antibody obtained by the method described in Example 1; VH SEQ ID NO: 12, VL SEQ ID NO: 21 (antibody, listed as Rattus norvegicus, V domains shown)
VH: EVQLVESGGGLVQPGRSLKLSCVASGFRFNDFWMTWIRQAPGKGLEWVASITYTGDNTYYAGSVKGRITISRDNAKSTLYLQMNSLRSEDTATYYCTRDDYGGYSPYYMDAWGQGTSVTVSS
VL: DIQMTQSPSSLSAFLGDRVTITCRASQDIGNYLRWFQQKPGKSPRLMIYGATNLANGVPSRFSGSRSGSDYSLTINNLESEDMAIYYCLKHNEYPFTFGSGTKLEIKRA

Tested on: human FGFR2 IIIb
Assay: Epitope identification by flow cytometry with Ig-like domain-deficient FGFR2 IIIb mutants
Assay type: binding
Settings: IgD1-, IgD2-, IgD3-deletion mutants of FGFR2 IIIb on HEK293T

Molecule | epitope (Ig-like domain bound)
B1 | bind to the common Ig-like domain 2 of human FGFR2 IIIb and FGFR2 IIIc
B2 | bind to the common Ig-like domain 2 of human FGFR2 IIIb and FGFR2 IIIc
B3 | bind to the Ig-like domain 3 of human FGFR2 IIIb

Residue numbers refer to the chain shown, from its start.
